# Values of other authors in patent US7514254B2, “Plant-derived alkaline alpha-galactosidase” (The State of Israel, Ministry of Agriculture & Rural …, priority 1998, dated 2009).
# Conditions: pNPG; literature; cited from earlier work
substance,measurement,value
enzyme described by Zhu et al.: recombinant acid alpha-galactosidase from green coffee beans produced in Pichia pastoris,pH optimum / maximal activity,6.4
same,second pH peak,4.5
